Measured values: patent publication US20170080049A1, “MEDICINE AGAINST GROWTH FAILURE INDUCED BY ADMINISTRATION OF STEROID” (DAIICHI SANKYO COMPANY, LIMITED, priority 2014, published 2017)
Part of at least one peptide drawing is inferred or uncertain, most often the ends. Some compounds share one wording; it may come from a single statement. Positions of bridges follow the written chain, without caps; N, C: chain ends. Residues, ends and D or L forms follow the SMILES beside them.

Experiments:
[1] = test system: dexamethasone-induced rat growth failure model; assay: Combined administration study of human-type CNP-53 or various CNP derivatives in dexamethasone-induced rat growth failure model (Example 3); assay type: in vivo
Procedure: Osmotic pumps (MINI-OSMOTIC PUMP Model 2004, available from DURECT CORPORATION, flow rate: 0.25 μL/hr, for 28 days) were charged with 0.67 mg/mL solution of dexamethasone (dexamethasone injection “KS”, available from Kyoritsuseiyaku Corporation) and one osmotic pump was embedded in the hypoderm of the back of each 5-week-old male Crlj:WI (Wistar) rat (5 animals/group, Groups 2 to 6, a total of 25 animals). At the same time, one osmotic pump (the same as above) charged with a 15 mg/mL solution of CNP derivative (A) in Group 3, human-type CNP-53 in Group 4, CNP derivative (B) in Group 5 and CNP derivative (C) in Group 6 was embedded in the hypoderm of the back simultaneously. No substance was administered to the normal control group (Group 1, 5 animals). Then the animals were fed for 28 days, and transitions of the body weight, the body length and the tail length were measured. On the final day, the blood was collected from the abdominal aorta and the animals were caused to die under isoflurane anesthesia, and plasma was separated from the collected blood and the cholesterol concentration was determined by using a “LabAssay (trademark) cholesterol” (available from Wako Pure Chemical Industries, Ltd.). After collecting the blood and causing the animals to die, the right femur and thymus were extracted, and the length of the right femur and the weight of the thymus were measured.

[2] = test system: rat growth failure induced by dexamethasone; assay: Follow-up administration test of CNP derivative (A) for rat growth failure induced by dexamethasone (Example 4); assay type: in vivo
Procedure: Osmotic pumps (MINI-OSMOTIC PUMP Model 2004, available from DURECT CORPORATION, flow rate: 0.25 μL/hr, for 28 days) were charged with a 0.67 mg/mL solution of dexamethasone (dexamethasone injection “KS”, available from Kyoritsuseiyaku Corporation), and one osmotic pump was embedded in the hypoderm of the back of each 4-week-old male Crlj:WI (Wistar) rat (5 animals/group, Group 2 and Group 3), and the animals were fed for 14 days. […] During the feeding period, transitions of the body weight, the body length and the tail length were measured, and on the final day, blood was collected from the abdominal aorta and the animal was caused to die under isoflurane anesthesia, the right femur was extracted and its length was measured.

[3] = dexamethasone 0.67 mg/mL pump alone or combined with 15 mg/mL pump of the CNP peptide, continuous s.c. 28 days, 5-week-old male Wistar rat, n=5
[4] = dexamethasone 0.67 mg/mL pump alone or with CNP derivative (A) 15 mg/mL pump for 28 days from Day 14, n=5
[5] = dexamethasone 0.67 mg/mL pump, 4-week-old male Wistar rat, baseline before CNP derivative (A), n=5

Compound: CC[C@H](C)[C@@H]1NC(=O)[C@H](CCCNC(=N)N)NC(=O)[C@H](CC(=O)O)NC(=O)[C@H](CC(C)C)NC(=O)[C@H](CCCCN)NC(=O)[C@H](CC(C)C)NC(=O)CNC(=O)[C@H](Cc2ccccc2)NC(=O)[C@@H](NC(=O)CNC(=O)[C@H](CCCCN)NC(=O)[C@H](CO)NC(=O)[C@H](CC(C)C)NC(=O)CN)CSSC[C@@H](C(=O)N[C@H](C(=O)N[C@@H](CCC(N)=O)C(=O)N[C@@H](CCC(N)=O)C(=O)N[C@@H](CCCNC(=N)N)C(=O)N[C@@H](CCCCN)C(=O)N[C@@H](CC(=O)O)C(=O)N[C@@H](CO)C(=O)N[C@@H](CCCCN)C(=O)N[C@@H](CCCCN)C(=O)N2CCC[C@H]2C(=O)N2CCC[C@H]2C(=O)N[C@@H](C)C(=O)N[C@@H](CCCCN)C(=O)N[C@@H](CC(C)C)C(=O)N[C@@H](CCC(N)=O)C(=O)N2CCC[C@H]2C(=O)N[C@@H](CCCNC(=N)N)C(=O)O)C(C)C)NC(=O)CNC(=O)[C@H](CC(C)C)NC(=O)CNC(=O)[C@H](CO)NC(=O)[C@H](CCSC)NC(=O)[C@H](CO)NC(=O)CNC1=O [CNP derivative (A), CNP (1-22) Ghrelin (12-28, E17D, SEQ ID NO: 13)] (H-GLSKGCFGLKLDRIGSMSGLGCVQQRKDSKKPPAKLQPR-OH; disulfide 6-22)
- femur length vs single administration group of dexamethasone (in words) ([1]; combined with dexamethasone, 28 days): tendency of being longer
- elongation of the body length and the tail length vs single administration group of dexamethasone (in words) ([1]; combined with dexamethasone, 28 days, p<0.05 or 0.01): significantly promoted
- Body weight at dissection ([1]; dexamethasone 0.67 mg/mL pump alone or combined with 15 mg/mL pump of the CNP peptide, 0.25 μL/hr continuous s.c. 28 days, 5-week-old male Wistar rat, mean ± SD, n=5): 307 ± 27 g
- Body length at dissection [1, 3]: 212 ± 12 mm
- Body length, variation from preadministration value (Δ value) [1, 3]: (36.8 ± 10.4) mm
- Body weight, variation from preadministration value (Δ value) [1, 3]: (136 ± 24) g
- Right femur length at dissection [1, 3]: 34.1 ± 1.5 mm
- Tail length at dissection [1, 3]: 216 ± 13 mm
- Tail length, variation from preadministration value (Δ value) [1, 3]: (48.4 ± 11.4) mm
- Body weight at dissection (Day 28 of CNP derivative (A) administration) ([2]; dexamethasone 0.67 mg/mL pump 28 days alone or with CNP derivative (A) 15 mg/mL pump for 28 days from Day 14, male Wistar rat, n=5): 333 ± 23 ^NS g
- Body length at dissection (Day 28 of CNP derivative (A) administration) [2, 4]: 223 ± 6 mm
- Body length variation (Δ value) from starting of administration of CNP derivative (A) [2, 4]: (47 ± 5**) mm
- Body weight variation (Δ value) from starting of administration of CNP derivative (A) [2, 4]: (154 ± 9**) g
- Right femur length only at dissection [2, 4]: 36.4 ± 0.2 mm
- Tail length at dissection (Day 28 of CNP derivative (A) administration) [2, 4]: 219 ± 5 mm
- Tail length variation (Δ value) from starting of administration of CNP derivative (A) [2, 4]: (47 ± 6**) mm
- Body weight, Day 14 of dexamethasone administration (prior to administration of CNP derivative (A)) ([2]; dexamethasone 0.67 mg/mL pump, 4-week-old male Wistar rat, baseline before CNP derivative (A), mean ± SD, n=5): 179 ± 15 ^NS g
- Body length, Day 14 of dexamethasone administration (prior to administration of CNP derivative (A)) [2, 5]: 175 ± 5 ^NS mm
- Tail length, Day 14 of dexamethasone administration (prior to administration of CNP derivative (A)) [2, 5]: 172 ± 6 ^NS mm
- body length and tail length after 28 days from starting CNP derivative (A), Group 3 vs Group 2 (in words) ([2]; follow-up administration after growth failure by dexamethasone, p<0.01): significantly longer
- femur after 28 days from starting CNP derivative (A) vs non-administered group (in words) ([2]; follow-up administration, p<0.01 (FIG. 4)): significantly longer
